PubChem BioAssay AID1224828, NIAID, 2016
In all, the deposit lists about 17,000 reagents; below is a random part of them. In the full data, 762 (4.5%) were called active. 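Active calls include both raised and lowered p65 entry, mostly lowered; wells with fewer than 50 cells lack a z-score.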 Raw values are not corrected between plates. The numbers tell different reagents against one gene apart.

- Screen: 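Knock-downs that increase or decrease LPS-induced p65 nuclear translocation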 (primary screen)
- Cells: mouse RAW264.7 G9 macrophage reporter cells (GFP-p65, Tnf promoter-mCherry)
- Reagents: siRNA pool against mouse genes, 100 nM
- Time to read-out: 2 days siRNA transfection, then 40 min LPS before fixation
- Treatment: LPS (Salmonella minnesota R595) at 10 ng/ml
- Measured: 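Imaged p65 nuclear translocation ratio, normalised to the plate median, converted to robust z-scores and averaged across two replicates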
- Direction: p65 translocation robust z-score: higher = more nuclear NF-kappaB p65 after LPS than the plate median; nuclear/cytoplasmic p65 ratio: higher = more nuclear NF-kappaB p65
- Active means: 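Called active when z exceeds 3.3 or falls under -1.56 (median of Tlr4 controls), giving activity score of at least 50; no calls for control wells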
- Meaning of the calls: active = hit (p65 shift raised or lowered); inactive = no clear change

| Gene | reagent no. | p65 translocation robust z-score | nuclear/cytoplasmic p65 ratio, rep 1 | nuclear/cytoplasmic p65 ratio, rep 2 | low cell count flag | activity call |
| --- | --- | --- | --- | --- | --- | --- |
| Aatf | 1 | -0.19 | 1.49 | 1.67 | enough cells to score | inactive |
| Kifap3 | 1 | -0.77 | 1.38 | 1.28 | enough cells to score | inactive |
| Ube2d2b | 1 | -0.49 | 1.46 | 1.62 | enough cells to score | inactive |
| Sms | 1 | 0.53 | 1.63 | 1.62 | enough cells to score | inactive |
| Zfp599 | 1 | 0.17 | 1.48 | 1.52 | enough cells to score | inactive |
| Pdzrn3 | 1 | – | 1.34 | 1.19 | fewer than 50 cells per well; well left out of scoring | inactive |
| Celf1 | 1 | -0.58 | 1.42 | 1.29 | enough cells to score | inactive |
| Zfp668 | 1 | -3.27 | 1.17 | 1.29 | enough cells to score | active |
| Nkain1 | 1 | – | 1.33 | 1.43 | fewer than 50 cells per well; well left out of scoring | inactive |
| Mnat1 | 1 | 1.73 | 1.61 | 1.62 | enough cells to score | inactive |
| Skint9 | 1 | 0.78 | 1.47 | 1.64 | enough cells to score | inactive |
| Psors1c2 | 1 | -1.76 | 1.06 | 1.1 | enough cells to score | active |
| Sugp2 | 1 | 0.62 | 1.39 | 1.41 | enough cells to score | inactive |
| E130016E03RIK | 1 | -0.75 | 1.34 | 1.29 | enough cells to score | inactive |
| Acsl1 | 1 | – | 1.19 | 1.38 | fewer than 50 cells per well; well left out of scoring | inactive |
| Prdm4 | 1 | -0.29 | 1.52 | 1.31 | enough cells to score | inactive |
| Antxrl | 1 | -0.79 | 1.23 | 1.39 | enough cells to score | inactive |
| Itm2b | 1 | -0.48 | 1.36 | 1.37 | enough cells to score | inactive |
| Entpd6 | 1 | -0.52 | 1.55 | 1.36 | enough cells to score | inactive |
| Serpine1 | 1 | -1.01 | 1.4 | 1.42 | enough cells to score | inactive |
| Htr1f | 1 | 0.71 | 1.6 | 1.88 | enough cells to score | inactive |
| St3gal3 | 1 | 1.47 | 1.63 | 1.39 | enough cells to score | inactive |
| Fscn2 | 1 | -0.7 | 1.31 | 1.32 | enough cells to score | inactive |
| Usp36 | 1 | 0.87 | 1.74 | 1.74 | enough cells to score | inactive |
| Mtbp | 1 | 0.18 | 1.46 | 1.37 | enough cells to score | inactive |
| Or8b51 | 1 | 0.37 | 1.55 | 1.24 | enough cells to score | inactive |
| Pfn3 | 1 | -0.74 | 1.29 | 1.2 | enough cells to score | inactive |
| Or5p73 | 1 | – | 1.39 | 1.09 | fewer than 50 cells per well; well left out of scoring | inactive |
| Xrn1 | 1 | -1.47 | 1.22 | 1.15 | enough cells to score | inactive |
| Acta2 | 1 | 0.06 | 1.49 | 1.51 | enough cells to score | inactive |
| Acta2 | 2 | -0.29 | 1.58 | 1.57 | enough cells to score | inactive |
| Rfpl4 | 1 | 0.65 | 1.5 | 1.3 | enough cells to score | inactive |
| Hs3st3a1 | 1 | – | 0 | 1.29 | fewer than 50 cells per well; well left out of scoring | inactive |
| Gtf2h2 | 1 | -0.06 | 1.44 | 1.35 | enough cells to score | inactive |
| Prss33 | 1 | – | 1.24 | 1.08 | fewer than 50 cells per well; well left out of scoring | inactive |
| Qdpr | 1 | 1.15 | 1.65 | 1.7 | enough cells to score | inactive |
| Gnl2 | 1 | 0.12 | 1.34 | 1.87 | enough cells to score | inactive |
| Atp1a2 | 1 | -0.27 | 1.54 | 1.61 | enough cells to score | inactive |
| Eps15l1 | 1 | -1.09 | 1.3 | 1.24 | enough cells to score | inactive |
| Or5m10b | 1 | 0.72 | 1.76 | 1.69 | enough cells to score | inactive |
| Sft2d2 | 1 | – | 1.29 | 1.35 | fewer than 50 cells per well; well left out of scoring | inactive |
| Ing2 | 1 | 0.15 | 1.49 | 1.4 | enough cells to score | inactive |
| Nhlrc1 | 1 | 0.08 | 1.72 | 1.67 | enough cells to score | inactive |
| Zdhhc2 | 1 | -0.6 | 1.46 | 1.18 | enough cells to score | inactive |
| Cyp17a1 | 1 | 0.99 | 1.63 | 1.49 | enough cells to score | inactive |
| Kcnip4 | 1 | 1.85 | 1.81 | 1.68 | enough cells to score | inactive |
| Fam110c | 1 | 0.42 | 1.54 | 1.6 | enough cells to score | inactive |
| Ugt2b38 | 1 | 1.96 | 1.61 | 1.9 | enough cells to score | inactive |
| Gpr150 | 1 | -0.86 | 1.38 | 1.52 | enough cells to score | inactive |
| Vmn1r183 | 1 | – | 1.32 | 0.991 | fewer than 50 cells per well; well left out of scoring | inactive |
| Vps52 | 1 | 0.53 | 1.6 | 1.56 | enough cells to score | inactive |
| Niban1 | 1 | -0.08 | 1.68 | 1.54 | enough cells to score | inactive |
| Tmem143 | 1 | – | 1.42 | 1.32 | fewer than 50 cells per well; well left out of scoring | inactive |
| Mpi | 1 | -0.03 | 1.46 | 1.32 | enough cells to score | inactive |
| Slc16a13 | 1 | -1.05 | 1.26 | 1.21 | enough cells to score | inactive |
| Cnot8 | 1 | 0.65 | 1.5 | 1.51 | enough cells to score | inactive |
| Hilpda | 1 | 0.49 | 1.67 | 1.7 | enough cells to score | inactive |
| Nsa2 | 1 | – | 1.33 | 1.5 | fewer than 50 cells per well; well left out of scoring | inactive |
| Copz1 | 1 | – | 1.06 | 1.83 | fewer than 50 cells per well; well left out of scoring | inactive |

Laid out differently: entries from further up
{"Gene":"Mpi","reagent no.":1,"p65 translocation robust z-score":-0.03,"nuclear/cytoplasmic p65 ratio, rep 1":1.46,"nuclear/cytoplasmic p65 ratio, rep 2":1.32,"low cell count flag":"enough cells to score","activity call":"inactive"}
{"Gene":"Slc16a13","reagent no.":1,"p65 translocation robust z-score":-1.05,"nuclear/cytoplasmic p65 ratio, rep 1":1.26,"nuclear/cytoplasmic p65 ratio, rep 2":1.21,"low cell count flag":"enough cells to score","activity call":"inactive"}
{"Gene":"Cnot8","reagent no.":1,"p65 translocation robust z-score":0.65,"nuclear/cytoplasmic p65 ratio, rep 1":1.5,"nuclear/cytoplasmic p65 ratio, rep 2":1.51,"low cell count flag":"enough cells to score","activity call":"inactive"}
{"Gene":"Hilpda","reagent no.":1,"p65 translocation robust z-score":0.49,"nuclear/cytoplasmic p65 ratio, rep 1":1.67,"nuclear/cytoplasmic p65 ratio, rep 2":1.7,"low cell count flag":"enough cells to score","activity call":"inactive"}
